{"source": "the supplement of paper PMC12578635", "note": "± gives the standard deviation of the averaged measurements. The list shows a part of the results. Single values are uncertain, as repeats are few or missing."}
{"tested_on": "RAW 264.7 macrophages infected with S. aureus JE2-lux", "assay": "host macrophage viability (CellTiter-Fluor) relative to DMSO vehicle; higher = more viable host cells", "details": "10 µM; treatment time 4 h; gentamicin 50 µg/ml", "units": {"host macrophage viability": "%"}}
{"smiles": "CC(=O)NC1(c2ccc(F)cc2)CCN(Cc2ccc3cccc(Cl)c3n2)CC1", "host macrophage viability": 109}
{"smiles": "CCc1nc(OCC(=O)NCc2ccc(OC(C)C)cc2)c2c(C)c(C)oc2n1", "host macrophage viability": 115}
{"smiles": "O=C1C=C/C(=N\\Nc2cc3c(cc2[N+](=O)[O-])OCCO3)c2ccccc21", "host macrophage viability": 111}
{"smiles": "Cc1cc(O)nc(SCc2nc3ncccn3c2Br)n1", "host macrophage viability": 117}
{"smiles": "Cc1cc(C)c2[nH]c(=O)c(CN(C(=O)Nc3ccccc3C)C3CC3)cc2c1", "host macrophage viability": 114}
{"smiles": "COc1cccc(CN2N=NC3C(=O)N(c4ccc(OC)c(OC)c4)C(=O)C32)c1", "note": "(configuration not stated)", "host macrophage viability": 118}
{"smiles": "Cc1csc(-c2csc(S(=O)(=O)N3CCc4ccccc4C3)c2)n1", "host macrophage viability": 86}
{"smiles": "Cc1ccc(NC(=O)CSc2nc3c(oc4ccccc43)c(=O)[nH]2)cc1C", "host macrophage viability": 124}
{"smiles": "Cc1cn(C2OC(COC(=O)c3ccccc3)C(O)C2O)c(=O)[nH]c1=O", "note": "(configuration not stated)", "host macrophage viability": 110}
{"smiles": "Cc1c(Cl)cccc1S(=O)(=O)N1CCN(c2cc(C)c3c(C)nn(-c4ccccc4)c3n2)CC1", "host macrophage viability": 94.7}
{"smiles": "COc1ccc(Cl)c2sc(NC(=O)CN3C(=O)c4ccccc4C3=O)nc12", "host macrophage viability": 89.2}
{"smiles": "COc1cccc(OCc2nnc(SCC(=O)Nc3cc(C)on3)n2C)c1", "host macrophage viability": 96.7}
{"smiles": "CN(C)c1ncc(C(=O)NC(c2ccccc2)c2cccnc2)cn1", "note": "(configuration not stated)", "host macrophage viability": 114}
{"smiles": "CS(=O)(=O)c1ccc(CC(=O)Nc2ccc3ncsc3c2)cc1", "host macrophage viability": 112}
{"smiles": "COc1ccc(CCNC(=O)Cc2cc(=O)[nH]c(=O)[nH]2)cc1OC", "host macrophage viability": 97.5}
{"smiles": "Cc1cc(-c2cncnc2C2CCN(C(=O)c3cn(C)nc3C)CC2)on1", "host macrophage viability": 120}
{"smiles": "COc1ccc(NC(=O)CN2C(=O)N(C)N(C)c3ncccc32)cc1OC", "host macrophage viability": 119}
{"smiles": "COc1ccc(C2=C(C)C(N3CCC(C(=O)NCCC(C)C)CC3)=NS2(=O)=O)cc1", "host macrophage viability": 129}
{"smiles": "COc1ccc(-c2cn3c(C)c(C(=O)N4CCN(Cc5ccccc5)CC4)sc3n2)cc1", "host macrophage viability": 124}
{"smiles": "Cc1cccn2c(=O)nc(SCc3ccc(F)cc3)nc12", "host macrophage viability": 114}
{"smiles": "COc1ccc(-c2cc(-c3ccccc3)nc(SCC(=O)Nc3nccs3)c2C#N)cc1", "host macrophage viability": 121}
{"smiles": "CC(c1ccccc1)N1CCn2c(nc3ccccc32)C1", "note": "(configuration not stated)", "host macrophage viability": 109}
{"smiles": "CCOc1ccccc1C1Nc2ccc(CC)cc2[C@H]2OCCC[C@@H]12", "note": "(some centres not stated)", "host macrophage viability": 106}
{"smiles": "Cc1ccc(NC(=O)C2OCOc3ccccc32)cc1N1CCCCC1", "note": "(configuration not stated)", "host macrophage viability": 117}
{"smiles": "O=C(CS(=O)CC(=O)Nc1cnc2ccccc2c1)Nc1ccc(Cl)cc1", "note": "(configuration not stated)", "host macrophage viability": 116}
{"smiles": "O=C(CSc1nc2[nH]ncc2c(=O)n1-c1ccccc1)Nc1ccc(Cl)cc1Cl", "host macrophage viability": 115}
{"smiles": "Cc1ccc(S(=O)(=O)CCCC(=O)Nc2nc3c(C)c(Cl)ccc3s2)cc1", "host macrophage viability": 76.8}
{"smiles": "N#Cc1nc(/C=C/c2cccs2)oc1N1CCNCC1", "host macrophage viability": 114}
{"smiles": "CC1(C)Oc2ccc(S(=O)(=O)NCCCN3CCOCC3)cc2NC1=O", "host macrophage viability": 107}
{"smiles": "CCc1cc2c(N3CCCC(C(=O)Nc4cc(C)ccc4OC)C3)ncnc2s1", "note": "(configuration not stated)", "host macrophage viability": 125}
{"smiles": "Cc1ccc(-n2nnc3c(=O)n(CC(=O)N4CCc5ccccc54)cnc32)cc1C", "host macrophage viability": 118}
{"smiles": "O=C(Cc1ccc(Cl)cc1)Nc1cccc(-c2ccc3nncn3n2)c1", "host macrophage viability": 112}
{"smiles": "N#CC1=C(SCC(=O)Nc2ccccc2F)NC2=C(C(=O)CCC2)C1c1ccco1", "note": "(configuration not stated)", "host macrophage viability": 123}
{"smiles": "Cc1ccc(OCC(=O)N/N=C/c2ccccc2O)cc1", "host macrophage viability": 127}
{"smiles": "Cc1cc(Cl)ccc1OCC(=O)Nc1ccc(S(=O)(=O)Nc2onc(C)c2C)cc1", "host macrophage viability": "108 ± 6.4"}
{"smiles": "CCc1ccc(S(=O)(=O)c2c(C(=O)N3CCCC3)cnc3ccc(C)cc23)cc1", "host macrophage viability": 114}
{"smiles": "CCOc1ccc(-n2ccnc(NCc3ccc4c(c3)OCO4)c2=O)cc1", "host macrophage viability": 120}
{"smiles": "CC1CC(C)CN(C(=O)c2cccn3c(-c4ccc(F)cc4)nnc23)C1", "note": "(configuration not stated)", "host macrophage viability": 118}
{"smiles": "COc1cc(NS(=O)(=O)c2cc(-c3nc(C)cs3)cs2)cc(OC)c1", "host macrophage viability": 120}
{"smiles": "CCc1cccc(OCC(O)Cn2c(N3CCN(C)CC3)nc3c2c(=O)[nH]c(=O)n3C)c1", "note": "(configuration not stated)", "host macrophage viability": 135}
{"smiles": "Cc1c(C(=O)C2=C(O)C(=O)N(CCN(C)C)C2c2ccco2)cnn1-c1ccccc1", "note": "(configuration not stated)", "host macrophage viability": 104}
{"smiles": "COc1cccc(NC(=O)CSc2nc(-c3ccccc3)nc3c2Cc2cccc(OC)c2O3)c1", "host macrophage viability": 114}
{"smiles": "N#Cc1c(O)nc(N2CCCCC2)nc1-c1ccc2c(c1)OCO2", "host macrophage viability": 122}
{"smiles": "CCOC(=O)c1ccccc1NC(=O)CSc1ncc(CO)n1Cc1ccc(OC)cc1", "host macrophage viability": 108}
{"smiles": "NC(=O)c1ccccc1NC(=O)c1cccn(OCc2ccccc2F)c1=O", "host macrophage viability": 128}
{"smiles": "Cc1ccccc1-c1nc2sc(N3CCN(CC(=O)N4CCCC4)CC3)nn2c1NC(C)(C)C", "host macrophage viability": 105}
{"smiles": "O=C(Cc1cc(=O)[nH]c(=O)[nH]1)N1CCN(C(=O)c2ccco2)CC1", "host macrophage viability": 114}
{"smiles": "Cc1cc(=O)n2nc(NCc3ccc(C(=O)Nc4ccc(C)c(Cl)c4)cc3)nc2[nH]1", "host macrophage viability": 119}
{"smiles": "O=C(CSc1ncccc1C(=O)O)Nc1ccc(Cl)cc1", "host macrophage viability": 127}
{"smiles": "COc1ccc(N2CC(NC(=O)Nc3nc4ccc(C)cc4s3)CC2=O)cc1OC", "note": "(configuration not stated)", "host macrophage viability": 125}
{"smiles": "Cc1ccc(S(=O)(=O)CCCC(=O)Nc2ccc3c(c2)C(=O)NC3=O)cc1", "host macrophage viability": 135}
{"smiles": "CC(C)(C)C(=O)N1CCC(NS(=O)(=O)c2ccc3c(c2)NC(=O)CO3)CC1", "host macrophage viability": 115}
{"smiles": "CCN(c1ccccc1)S(=O)(=O)c1ccc2[nH]c(=O)cc(C)c2c1", "host macrophage viability": 122}
{"smiles": "O=C(Cn1cccc1-c1nc(-c2ccccc2)cs1)N1CC=C(c2ccccc2)CC1", "host macrophage viability": 116}
{"smiles": "COc1ccc2cc(CCNC(=O)c3cccc(C(F)(F)F)c3)c(=O)[nH]c2c1", "host macrophage viability": 123}
{"smiles": "COC(=O)c1ccc(C(=O)NNc2nc3c(C)cc(C)cc3s2)cc1", "host macrophage viability": "141 ± 14"}
{"smiles": "O=C(CCc1ccccc1)Nc1c2c(nn1-c1ccccc1)CS(=O)(=O)C2", "host macrophage viability": 93}
{"smiles": "O=C(NCCCSc1nc2ccccc2o1)Nc1ncccn1", "host macrophage viability": 114}
{"smiles": "Nc1cc(-c2ccco2)nn(CC(=O)NCC2COc3ccccc3O2)c1=O", "note": "(configuration not stated)", "host macrophage viability": 110}
{"smiles": "Cn1c(CN2CCOCC2)nc2cc(NC(=O)C3(C)CCCO3)ccc21", "note": "(configuration not stated)", "host macrophage viability": 96.5}
{"smiles": "O=C(CC1C(=O)N(c2ccc(F)cc2)C(=O)N1NC(=O)c1ccccc1)NCc1ccccc1", "note": "(configuration not stated)", "host macrophage viability": 128}
{"smiles": "Cc1cc2cc(CNC(=O)NC3CCCCC3)ccc2[nH]1", "host macrophage viability": "110 ± 0.35"}
{"smiles": "CC1Cc2nc(SCC(=O)NCC3CCCO3)n(C)c(=O)c2S1", "note": "(configuration not stated)", "host macrophage viability": 119}
{"smiles": "CS(=O)(=O)c1ccc2nc(NC(=O)c3ccccc3[N+](=O)[O-])sc2c1", "host macrophage viability": 110}
{"smiles": "Cc1nn(C)c(C)c1CNC(=O)Cn1c(=O)c(=O)n(Cc2ccncc2)c2ncccc21", "host macrophage viability": 146}
{"smiles": "CCOc1ccc(NC(=O)c2sc3nc4c(cc3c2N)C(=O)CC(C)(C)C4)cc1", "host macrophage viability": 99.9}
{"smiles": "Cc1cc(NC(=O)COc2ccc3ccccc3c2)nc2c1c(=O)oc1ccccc12", "host macrophage viability": 119}
{"smiles": "CCOc1ccc(CCNC(=O)c2nnn(CC(=O)Nc3cc(C)cc(C)c3)c2N)cc1OCC", "host macrophage viability": 131}
{"smiles": "O=C(N/N=C/c1c(F)cccc1Cl)c1n[nH]c2c1CCC2", "host macrophage viability": 99.9}
{"smiles": "COc1ccc(S(=O)(=O)NC(=N)NCCc2c[nH]c3ccc(F)cc23)cc1", "host macrophage viability": 128}
{"smiles": "COc1cc(Nc2cc(C)nc3ncnn23)cc(OC)c1", "host macrophage viability": 98.6}
{"smiles": "O=C(CSc1nc(-c2ccccc2)no1)Nc1ccccc1Cl", "host macrophage viability": 114}
{"smiles": "CC1CCCN(c2ccc3cccc(OCC(=O)Nc4ccc5c(c4)OCO5)c3n2)C1", "note": "(configuration not stated)", "host macrophage viability": 127}
{"smiles": "CCOc1ccc2c(c1)c(=O)c(C(=O)c1ccccc1)cn2CC(=O)Nc1cccc(OC)c1", "host macrophage viability": 108}
{"smiles": "NC(=O)COC(=O)c1cccc2c1-c1ccccc1C2=O", "host macrophage viability": 137}
{"smiles": "O=C(Nc1nnc(-c2ccc(Br)cc2)s1)C1CC1", "host macrophage viability": 124}
{"smiles": "O=C(CCn1cnc(-c2ccccc2)c1-c1ccccc1)N/N=C/c1ccco1", "host macrophage viability": 107}
{"smiles": "Cc1cccc(-c2nc3n(CC(=O)N(CCO)Cc4ccccc4)c(C)cc(=O)n3n2)c1", "host macrophage viability": 121}
{"smiles": "COc1ccc(N2CCN(Cc3nc4c(c(=O)n(C)c(=O)n4C)n3CC(C)=O)CC2)cc1", "host macrophage viability": 114}
{"smiles": "CCCCOC(=O)c1ccc(Nc2ncnc3c2cnn3-c2ccccc2)cc1", "host macrophage viability": 78.6}
{"smiles": "CC(=O)Oc1ccccc1C(=O)Oc1ccc(/C=N\\n2cnnc2)cc1", "host macrophage viability": 125}
{"smiles": "Cc1ccc(CN2C3CCCC2CC(NC(=O)NCc2ccccc2)C3)cc1", "note": "(configuration not stated)", "host macrophage viability": 125}
{"smiles": "COc1ccc2c(c1)s/c(=N\\C(=O)CSCC(=O)N1CCc3ccccc31)n2C", "host macrophage viability": 119}
{"smiles": "NC(=O)c1ccc(NC(=O)C(=O)Nc2cccc(N3CCCC3=O)c2)cc1", "host macrophage viability": 107}
{"smiles": "N#C/C(=C\\c1ccc(-c2ccc([N+](=O)[O-])cc2)o1)c1nc(-c2cccs2)cs1", "host macrophage viability": 111}
{"smiles": "CCOC(=O)c1oc2ccccc2c1NC(=O)Cc1cccs1", "host macrophage viability": "115 ± 1.9"}
{"smiles": "Cc1nnc2ccc(-n3ncc4c3NC(=O)CC4c3ccccc3OC(C)C)nn12", "note": "(configuration not stated)", "host macrophage viability": 106}
{"smiles": "C[C@@H]1CN(Cc2ccccc2F)CCN1CC(=O)N1CC(=O)Nc2ccccc21", "host macrophage viability": 107}
{"smiles": "O=C(CSc1nc(=O)n(CC2CCCO2)c2c1CCCC2)Nc1nc2ccccc2s1", "note": "(configuration not stated)", "host macrophage viability": 111}
{"smiles": "O=C(NNc1nc2cc3c(cc2s1)OCCO3)c1ccccc1", "host macrophage viability": "105 ± 9.4"}
{"smiles": "Cn1c(=O)[nH]c2cc(-c3noc(CNS(=O)(=O)c4ccccc4)n3)ccc21", "host macrophage viability": 145}
{"smiles": "Cc1c(NC(=O)c2cc(-c3ccccc3)on2)c(=O)n(-c2ccccc2)n1C", "host macrophage viability": 113}
{"smiles": "CCOC(=O)N1CCN(C(=O)CSc2nc3c(c(=O)n2-c2cccc(OC)c2)SCC3)CC1", "host macrophage viability": 103}
{"smiles": "O=C(Nc1cnc(N2CCN(c3ccccn3)CC2)c(C(=O)O)c1)c1ccc(F)cc1", "host macrophage viability": 124}
{"smiles": "Cc1cc(=O)[nH]c2c(C)cc(S(=O)(=O)NC3CCCCC3)cc12", "host macrophage viability": 138}
{"smiles": "O=C(CN1C(=O)c2ccccc2S1(=O)=O)Nc1nccs1", "host macrophage viability": 129}
{"smiles": "Cc1ccc(NS(=O)(=O)c2ccc3[nH]c(=O)[nH]c3c2)cc1C", "host macrophage viability": 122}
{"smiles": "COc1ccc(/C=C2\\SC(=S)N(CCC(=O)Nc3ccc(C(=O)O)c(O)c3)C2=O)cc1OC", "host macrophage viability": 118}
{"smiles": "Nc1ccc(Cc2ccc(N)c([N+](=O)[O-])c2)cc1[N+](=O)[O-]", "host macrophage viability": 103}
{"smiles": "CC(C(=O)N1CCCC1)C1CCN(C(=O)c2cc3cc(Cl)ccc3[nH]2)CC1", "note": "(configuration not stated)", "host macrophage viability": 108}
{"smiles": "CC(=O)C1C(c2ccc(OC(F)F)cc2)NC(=O)NC1(O)C(F)(F)F", "note": "(configuration not stated)", "host macrophage viability": 126}
{"smiles": "COc1ccc(-c2[nH]c3ccccc3c2SCCNC(C)=O)cc1", "host macrophage viability": 117}
